The chains are these.
B1: il10ra_site1_sap_14_mot_HHH_b2_07495_000000114_0001_42_55_H_._HHH_b2_02957_0001_0000200014_0000002_0_0001 (protein)
chain: SSSSSDEEAAERSVKFMLRAAKQLEDEEYVRLALRFARAIARDGNDPELERLVEKVEEELSSSSS
B2: il10ra_site1_sap_24_mot_HHH_b1_02665_000000293_0001_1_18_H_._HHH_b1_03004_0001_0000100002_0000001_0_0001_af2pred_0001 (protein)
chain: SSSSDEEEEAEELLEQAEEAAKRNDSKLLLKILRRVAELAAESRNPELAEIARKIAQLFGSSSSS
B3: il10ra_site1_sap_13_mot_HHH_b2_00092_000000181_0001_22_39_H_._HHH_b2_02377_0001_0000400027_0000001_0_0001 (protein)
chain: SSSSSDETEELYRLSKEAIELAAEGNPEEAKEVLEEAEKIAEEANNRVLLVNIRYLLRKLSSSSS
B4: il10ra_site1_sap_25_mot_HHH_b2_08004_000000101_0001_1_17_H_._HHH_b1_00239_af2_0001_0000100007_0000001_0_0001_af2pred_0001 (protein)
chain: SSSSSEEAQRVIELIREAFQLLHEGNPEEARELLEEARELAEEANNPLLRLQVELVLKQINSSSS
B5: il10ra_site1_normal_mot_HHH_b2_00479_000000091_0001_1_12_H_._HHH_b1_05715_0001_0000500051_0000001_0 (protein)
chain: SSSSDVADELYKLSREALELLANGNPEEAREVVEEAEELARENNNPVLLFSIEYLARQIESSSSS
B6: il10ra_site1_normal_mot_HHH_b1_04877_af2_000000063_0001_41_55_H_._HHH_b1_05082_0001_0000300014_0000001_0 (protein)
chain: SSSSSEEEEVEELLEEAERIPDPHEVAELLAEALRIAYELGDEELFRRIQEVAIKIQERLSSSSS
B7: il10ra_site1_sap_23_mot_HHH_b2_04186_af2_000000278_0001_1_19_H_._HHH_b1_06647_af2_0001_0000600036_0000002_0_0001 (protein)
chain: SSSSTKTHEVYKLSERALELRANGNPEEAREVLERAEELAEEANNYAALHAVRMILEQIESSSSS
B8: il10ra_site1_sap_19_mot_39ab2cb694c8b9c1dc7e65c0d672c93e_0001_000000036_0001_53_65_H_._HHH_b2_05437_0001_0000300034_0000001_0_0001_af2pred_0001 (protein)
chain: SSSSSDVEELLERAKELAERGNPEEAKEVLREALEAITHARDPELSYKAVRAYAFVNQLSSSSSS
B9: il10ra_site1_normal_mot_HHH_b2_05323_000000159_0001_1_18_H_._HHH_b1_07021_0001_0000100004_0000001_0 (protein)
chain: SSSSDEEEQRVLELVQEVFRLALRGNPEEAREVLEEAKELAERIGDERLLRVIESLEQALSSSSS
B10: il10ra_site1_normal_mot_HHH_b2_02337_000000026_0001_38_52_H_._HHH_b1_06600_0001_0000200019_0000001_0 (protein)
chain: SSSSSAEEEARELLEEAEELLRQGNPEEAIRLLQEASAFALRASDQELLREIWRLVQELRSSSSS
B11: il10ra_site1_normal_mot_HHH_b1_01821_000000158_0001_23_39_H_._HHH_b2_00259_0001_0000800036_0000001_0 (protein)
chain: SSSSSSSEEIEEEVRRLLEEAERVDQEEANRLLLEALQLAIEAQDAELLQEIWEVFRELSSSSSS
B12: il10ra_site1_sap_20_mot_HHH_b2_00335_000000038_0001_43_57_H_._HHH_b1_02783_0001_0000300035_0000001_0_0001 (protein)
chain: DEELVELARLALEGDPRAHMELIHLYALIHQGDPEAERELEEAIKLAEELGDEDVVIYLRNLLEQ
B13: il10ra_site1_sap_14_mot_HHH_b2_00984_000000042_0001_1_20_H_._HHH_b2_03909_0002_0000200009_0000001_0_0001_af2pred_dldesign_0_af2pred (protein)
chain: SREELLDILVRDLDIPEEVAKAILDQVTKQSGGDRRAILQRLLARAQLQGREDAVARLTALLERE
B14: il10ra_site1_normal_mot_HHH_b1_05357_000000034_0001_23_39_H_._HHH_b2_01604_af2_0001_0000400004_0000001_0 (protein)
chain: SSSSSSEIEEEVEELLERAKHIPDKEELSHVLIQAYAVANRGGNEELRELVREVAIRLVSSSSSS
B15: il10ra_site1_normal_mot_HHH_b1_04514_000000156_0001_1_18_H_._HHH_b2_06451_0001_0000400042_0000001_0 (protein)
chain: SSSSSEELYEEVKKVIEEAKELFERGNPEEVERILRELLEELEELNNFAALFSVEHLARVLSSSS
B16: il10ra_site1_normal_mot_HHH_b1_05185_000000011_0001_22_39_H_._HHH_b2_02890_0002_0000300022_0000002_0 (protein)
chain: SSSSSVAERSVRFLLEAAKQIDDPEYVRLTLRFAKALARSTNNEELEEKIEEVEKELKELLSSSS
B17: il10ra_site1_normal_mot_HHH_b1_02062_000000185_0001_1_20_H_._HHH_b2_07452_0001_0000300045_0000002_0_af2pred_0001 (protein)
chain: SSSSSHTEEVLRLSREAIELLNDGNKEEAEKLVEEAQELAREGGNELLVRLLEFLEEQIKSSSSS
B18: il10ra_site1_sap_10_mot_HHH_b1_07380_000000129_0001_1_20_H_._HHH_b1_03010_0001_0000100007_0000001_0_0001 (protein)
chain: SSSSSELRHKLAEALMRAARAMFRGNPEEAEELLEEAERLAEKANDEKAKRLIEDLLRTVKSSSS
B19: il10ra_site1_sap_29_mot_1a19b20af19f20120a784029a7d8d036_0001_000000031_0001_1_14_H_._HHH_b1_00672_0001_0000200007_0000001_0_0001 (protein)
chain: SSSSSDANEEIWRLSKEALEALANGNPEEAKEILEEAIELAREANSRVLLHVLEFLEKEISSSSS

The list shows a part of the results.

Consider 19 molecules from PMC10163288.

The experiment concerns the target il10ra, Q13651. Briefly: yeast display titration.
For B1, the “apparent Kd” value is “inactive: no binding seen”.

For B2, the “apparent Kd” value is “inactive: no binding seen”.

In the case of B3, the “apparent Kd” value is “inactive: no binding seen”.

On to B4, for which the “apparent Kd” value was “inactive: no binding seen”.

B5: the “apparent Kd” value is “inactive: no binding seen”.

Take B6: the “apparent Kd” value is “inactive: no binding seen”.

B7: the “apparent Kd” value is “inactive: no binding seen”.

As to B8, the “apparent Kd” value was “inactive: no binding seen”.

Take B9: the “apparent Kd” value was “inactive: no binding seen”.

With B10, the “apparent Kd” value is “inactive: no binding seen”.

Consider B11, for which the “apparent Kd” value was “inactive: no binding seen”.

Consider B12, for which the “apparent Kd” value was “inactive: no binding seen”.

For the molecule B13, the “apparent Kd” value was “inactive: no binding seen”.

Take B14: the “apparent Kd” value was “inactive: no binding seen”.

Consider B15, for which the “apparent Kd” value was “inactive: no binding seen”.

On to B16, for which the “apparent Kd” value was “inactive: no binding seen”.

As for B17, the “apparent Kd” value is “inactive: no binding seen”.

On to B18, for which the “apparent Kd” value is “inactive: no binding seen”.

In the case of B19, the “apparent Kd” value is “inactive: no binding seen”.
